Laboratory results: US20110212105A1

Molecular target: α-chain of the A2MR receptor purified from human plasma (soluble A2MR) (human)
Assay: affinity chromatography of plasma fractions on immobilized MeNH2_A2M; washed with 0.5 M NaCl, A2MR eluted with EDTA at pH 6

B1: human alpha-2 macroglobulin activated by methylamine treatment (ligand)
chain: SVSGKPQYMVLVPSLLHTETTEKGCVLLSYLNETVTVSASLESVRGNRSLFTDLEAENDVLHCVAFAVPKSSSNEEVMFLTVQVKGPTQEFKKRTTVMVKNEDSLVFVQTDKSIYKPGQTVKFRVVSMDENFHPLNELIPLVYIQDPKGNRIAQWQSFQLEGGLKQFSFPLSSEPFQGSYKVVVQKKSGGRTEHPFTVEEFVLPKFEVQVTVPKIITILEEEMNVSVCGLYTYGKPVPGHVTVSICRKYSDASDCHGEDSQAFCEKFSGQLNSHGCFYQQVKTKVFQLKRKEYEMKLHTEAQIQEEGTVVELTGRQSSEITRTITKLSFVKVDSHFRQGIPFFGQVRLVDGKGVPIPNKVIFIRGNEANYYSNATTDEHGLVQFSINTTNVMGTSLTVRVNYKDRSPCYGYQWVSEEHEEAHHTAYLVFSPSKSFVHLEPMSHELPCGHTQTVQAHYILNGGTLLGLKKLSFYYLIMAKGGIVRTGTHGLLVKQEDMKGHFSISIPVKSDIAPVARLLIYAVLPTGDVIGDSAKYDVENCLANKVDLSFSPSQSLPASHAHLRVTAAPQSVCALRAVDQSVLLMKPDAELSASSVYNLLPEKDLTGFPGPLNDQDDEDCINRHNVYINGITYTPVSSTNEKDMYSFLEDMGLKAFTNSKIRKPKMCPQLQQYEMHGPEGLRVGFYESDVMGRGHARLVHVEEPHTETVRKYFPETWIWDLVVVNSAGVAEVGVTVPDTITEWKAGAFCLSEDAGLGISSTASLRAFQPFFVELTMPYSVIRGEAFTLKATVLNYLPKCIRVSVQLEASPAFLAVPVEKEQAPHCICANGRQTVSWAVTPKSLGNVNFTVSAEALESQELCGTEVPSVPEHGRKDTVIKPLLVEPEGLEKETTFNSLLCPSGGEVSEELSLKLPPNVVEESARASVSVLGDILGSAMQNTQNLLQMPYGCGEQNMVLFAPNIYVLDYLNETQQLTPEVKSKAIGYLNTGYQRQLNYKHYDGSYSTFGERYGRNQGNTWLTAFVLKTFAQARAYIFIDEAHITQALIWLSQRQKDNGCFRSSGSLLNNAIKGGVEDEVTLSAYITIALLEIPLTVTHPVVRNALFCLESAWKTAQEGDHGSHVYTKALLAYAFALAGNQDKRKEVLKSLNEEAVKKDNSVHWERPQKPKAPVGHFYEPQAPSAEVEMTSYVLLAYLTAQPAPTSEDLTSATNIVKWITKQQNAQGGFSSTQDTVVALHALSKYGAATFTRTGKAAQVTIQSSGTFSSKFQVDNNNRLLLQQVSLPELPGEYSMKVTGEGCVYLQTSLKYNILPEKEEFPFALGVQTLPQTCDEPKAHTSFQISLSVSYTGSRSASNMAIVDVKMVSGFIPLKPTVKMLERSNHVSRTEVSSNHVLIYLDKVSNQTLSLFFTVLQDVPVRDLKPAIVKVYDYYETDEFAIAEYNAPCSKDLGNA
  binding: binds

Results are given in words; binding and its absence hold for the method and conditions named. Binding can be weak; no strength is given.
